From US20240019450A1, “FLUORESCENT SENSORS” (THE UNIVERSITY OF SYDNEY, priority 2020, published 2024) come the findings set out here.

The nature of the series: Fluorescence sensor array on spiked human plasma samples (LDA). To be noted: for classification accuracy: 14 optimised instrument variables, all concentrations tested; for classification accuracy / correct classification: spiked human plasma; for correct classification: 21 measurements (six sensors at 4 excitation wavelengths); for LDA classification, cross-validated / LDA correct classification: six sensors, four concentrations 0.5-5 μM in spiked human plasma.

As to `N.N.[Cl][Pt][Cl]` [cisplatin], the classification accuracy is recorded as 100%; the correct classification came to 100%; the “LDA classification, cross-validated” value is recorded as 32%; the LDA correct classification is listed as 79%.
Take `O=C1[O][Pt]2([NH][C@@H]3CCCC[C@H]3[NH]2)[O]C1=O` [oxaliplatin]: the classification accuracy was 100%; the correct classification was found to be 100%; the “LDA classification, cross-validated” value is listed as 30%; the LDA correct classification is given as 80%.
